# From patent US20160130303A1
# Chains of the proteins cited; added tags and fusions are not shown. Lines headed by an entry give the natural chain unless they say otherwise; changes in a name come on top.
# UniProt P49841: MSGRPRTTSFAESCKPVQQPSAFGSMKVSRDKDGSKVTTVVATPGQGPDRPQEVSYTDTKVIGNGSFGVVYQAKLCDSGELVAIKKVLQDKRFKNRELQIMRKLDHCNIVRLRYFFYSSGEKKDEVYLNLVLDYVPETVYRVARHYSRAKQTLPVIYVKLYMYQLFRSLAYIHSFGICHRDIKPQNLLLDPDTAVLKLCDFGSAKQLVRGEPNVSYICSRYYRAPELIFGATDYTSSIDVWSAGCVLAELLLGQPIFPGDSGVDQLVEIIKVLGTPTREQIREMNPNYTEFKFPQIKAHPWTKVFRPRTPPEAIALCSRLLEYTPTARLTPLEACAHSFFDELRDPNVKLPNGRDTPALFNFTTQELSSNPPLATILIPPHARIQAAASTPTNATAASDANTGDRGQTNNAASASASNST
# Results are given in words; binding and its absence hold for the method and conditions named. Some binding calls cover weakened binding; strength is not graded here.
# B1: L803-mts (peptide)
# peptide: GKEAPPAPPQSP
# modifications: not spelled out in the text for L803-mts; the parent L803 carries S(p)
# Molecular target: wild-type (WT) GSK-3β (human) (UniProt P49841)
# Assay: in vitro kinase assay with purified GSK-3β, with and without 100 µM L803-mts; competition with substrates
binder,measurement,value
B1,binding,binds
